Results on eleven targets are retold here after the supplement of paper PMC6411743.

Amino acid sequences for entries named in this document (tags omitted). A change or cut given only in a name is not applied to a line headed by its entry.
UniProt Q96Q11: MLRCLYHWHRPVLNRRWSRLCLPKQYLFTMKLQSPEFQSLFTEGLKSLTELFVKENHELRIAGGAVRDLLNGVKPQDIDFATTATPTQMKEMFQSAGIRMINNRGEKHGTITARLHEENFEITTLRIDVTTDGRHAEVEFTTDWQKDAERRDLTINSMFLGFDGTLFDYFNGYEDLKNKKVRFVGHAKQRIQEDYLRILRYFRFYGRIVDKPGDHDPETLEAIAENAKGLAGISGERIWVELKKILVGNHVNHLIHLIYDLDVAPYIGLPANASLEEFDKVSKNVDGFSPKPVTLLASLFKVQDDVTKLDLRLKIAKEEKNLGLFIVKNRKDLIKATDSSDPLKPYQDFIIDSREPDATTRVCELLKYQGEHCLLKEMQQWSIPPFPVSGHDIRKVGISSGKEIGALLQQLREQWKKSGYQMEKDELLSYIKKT
UniProt Q9BXW9: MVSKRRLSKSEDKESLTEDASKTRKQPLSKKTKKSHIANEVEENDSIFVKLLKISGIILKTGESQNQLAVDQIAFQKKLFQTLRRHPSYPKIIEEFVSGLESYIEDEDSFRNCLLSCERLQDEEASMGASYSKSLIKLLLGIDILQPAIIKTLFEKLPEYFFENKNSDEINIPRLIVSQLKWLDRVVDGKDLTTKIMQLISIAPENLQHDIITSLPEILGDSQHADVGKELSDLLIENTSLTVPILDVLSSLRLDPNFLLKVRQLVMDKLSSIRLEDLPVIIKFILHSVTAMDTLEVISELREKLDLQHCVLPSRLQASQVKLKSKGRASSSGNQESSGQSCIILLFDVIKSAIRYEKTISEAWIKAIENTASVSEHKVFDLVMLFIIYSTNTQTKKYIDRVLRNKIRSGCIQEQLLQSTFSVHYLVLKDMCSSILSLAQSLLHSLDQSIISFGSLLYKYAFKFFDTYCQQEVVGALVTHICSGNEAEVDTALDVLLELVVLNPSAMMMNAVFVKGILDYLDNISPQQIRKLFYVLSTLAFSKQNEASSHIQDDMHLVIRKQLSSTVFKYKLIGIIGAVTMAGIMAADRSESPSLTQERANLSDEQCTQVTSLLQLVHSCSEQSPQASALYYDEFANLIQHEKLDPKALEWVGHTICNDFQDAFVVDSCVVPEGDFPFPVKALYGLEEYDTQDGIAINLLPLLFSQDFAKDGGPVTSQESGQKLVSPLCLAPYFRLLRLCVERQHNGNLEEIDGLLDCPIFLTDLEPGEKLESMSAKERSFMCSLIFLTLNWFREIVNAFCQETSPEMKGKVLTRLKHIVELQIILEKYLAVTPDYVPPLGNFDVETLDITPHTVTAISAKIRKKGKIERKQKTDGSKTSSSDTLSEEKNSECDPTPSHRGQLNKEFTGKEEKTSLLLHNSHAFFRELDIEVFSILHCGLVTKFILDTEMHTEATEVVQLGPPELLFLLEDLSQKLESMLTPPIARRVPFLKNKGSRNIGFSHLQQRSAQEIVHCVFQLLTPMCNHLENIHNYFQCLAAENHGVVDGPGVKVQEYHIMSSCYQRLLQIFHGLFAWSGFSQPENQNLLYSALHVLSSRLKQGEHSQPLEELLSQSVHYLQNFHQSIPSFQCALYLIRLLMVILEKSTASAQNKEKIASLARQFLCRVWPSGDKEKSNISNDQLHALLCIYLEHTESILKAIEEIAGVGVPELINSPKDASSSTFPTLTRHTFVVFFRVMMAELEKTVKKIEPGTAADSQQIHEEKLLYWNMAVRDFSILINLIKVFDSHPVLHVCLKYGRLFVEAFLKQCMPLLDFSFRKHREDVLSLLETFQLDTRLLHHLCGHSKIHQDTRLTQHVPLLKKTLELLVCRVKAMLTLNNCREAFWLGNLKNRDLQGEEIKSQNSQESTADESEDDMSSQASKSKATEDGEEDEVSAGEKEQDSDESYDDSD
UniProt Q96S52: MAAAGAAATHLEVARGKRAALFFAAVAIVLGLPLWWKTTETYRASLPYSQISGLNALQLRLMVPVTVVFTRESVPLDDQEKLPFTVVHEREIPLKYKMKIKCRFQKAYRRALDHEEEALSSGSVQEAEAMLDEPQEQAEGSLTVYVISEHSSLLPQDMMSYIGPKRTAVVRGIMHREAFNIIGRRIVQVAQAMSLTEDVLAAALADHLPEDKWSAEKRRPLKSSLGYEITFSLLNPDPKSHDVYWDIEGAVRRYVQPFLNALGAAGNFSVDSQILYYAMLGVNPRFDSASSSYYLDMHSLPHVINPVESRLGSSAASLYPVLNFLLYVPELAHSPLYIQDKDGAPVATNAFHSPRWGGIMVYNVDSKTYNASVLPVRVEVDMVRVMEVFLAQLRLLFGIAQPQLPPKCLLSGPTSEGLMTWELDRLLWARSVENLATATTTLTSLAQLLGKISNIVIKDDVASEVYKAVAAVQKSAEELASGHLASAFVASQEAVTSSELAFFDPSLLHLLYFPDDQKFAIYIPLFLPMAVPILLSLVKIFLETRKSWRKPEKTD
UniProt Q99595: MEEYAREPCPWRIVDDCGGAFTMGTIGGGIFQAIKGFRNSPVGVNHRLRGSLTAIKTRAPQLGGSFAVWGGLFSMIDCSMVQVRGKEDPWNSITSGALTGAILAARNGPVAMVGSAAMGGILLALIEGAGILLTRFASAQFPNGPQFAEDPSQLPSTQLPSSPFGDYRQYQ
UniProt Q9BWE0: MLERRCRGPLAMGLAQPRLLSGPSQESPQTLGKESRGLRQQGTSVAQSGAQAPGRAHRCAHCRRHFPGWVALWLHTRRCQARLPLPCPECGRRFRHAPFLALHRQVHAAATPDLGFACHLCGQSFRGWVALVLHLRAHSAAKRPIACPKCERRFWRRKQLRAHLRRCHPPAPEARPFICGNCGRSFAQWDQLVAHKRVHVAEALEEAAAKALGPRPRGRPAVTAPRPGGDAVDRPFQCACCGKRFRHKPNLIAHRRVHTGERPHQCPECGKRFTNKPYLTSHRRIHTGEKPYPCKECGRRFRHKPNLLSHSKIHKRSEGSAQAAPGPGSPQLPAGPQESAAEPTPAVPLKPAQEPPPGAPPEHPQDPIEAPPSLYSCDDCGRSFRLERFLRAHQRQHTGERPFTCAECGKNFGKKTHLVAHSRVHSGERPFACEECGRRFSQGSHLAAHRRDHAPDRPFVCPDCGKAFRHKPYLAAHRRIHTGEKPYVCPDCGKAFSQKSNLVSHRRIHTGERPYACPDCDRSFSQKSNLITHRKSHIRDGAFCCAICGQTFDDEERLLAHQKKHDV
UniProt Q99828: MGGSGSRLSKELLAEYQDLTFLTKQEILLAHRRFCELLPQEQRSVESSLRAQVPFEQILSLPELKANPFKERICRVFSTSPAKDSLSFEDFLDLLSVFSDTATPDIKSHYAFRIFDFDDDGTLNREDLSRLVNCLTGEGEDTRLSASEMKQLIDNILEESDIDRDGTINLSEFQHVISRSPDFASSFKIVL
UniProt Q96S59, whole entry: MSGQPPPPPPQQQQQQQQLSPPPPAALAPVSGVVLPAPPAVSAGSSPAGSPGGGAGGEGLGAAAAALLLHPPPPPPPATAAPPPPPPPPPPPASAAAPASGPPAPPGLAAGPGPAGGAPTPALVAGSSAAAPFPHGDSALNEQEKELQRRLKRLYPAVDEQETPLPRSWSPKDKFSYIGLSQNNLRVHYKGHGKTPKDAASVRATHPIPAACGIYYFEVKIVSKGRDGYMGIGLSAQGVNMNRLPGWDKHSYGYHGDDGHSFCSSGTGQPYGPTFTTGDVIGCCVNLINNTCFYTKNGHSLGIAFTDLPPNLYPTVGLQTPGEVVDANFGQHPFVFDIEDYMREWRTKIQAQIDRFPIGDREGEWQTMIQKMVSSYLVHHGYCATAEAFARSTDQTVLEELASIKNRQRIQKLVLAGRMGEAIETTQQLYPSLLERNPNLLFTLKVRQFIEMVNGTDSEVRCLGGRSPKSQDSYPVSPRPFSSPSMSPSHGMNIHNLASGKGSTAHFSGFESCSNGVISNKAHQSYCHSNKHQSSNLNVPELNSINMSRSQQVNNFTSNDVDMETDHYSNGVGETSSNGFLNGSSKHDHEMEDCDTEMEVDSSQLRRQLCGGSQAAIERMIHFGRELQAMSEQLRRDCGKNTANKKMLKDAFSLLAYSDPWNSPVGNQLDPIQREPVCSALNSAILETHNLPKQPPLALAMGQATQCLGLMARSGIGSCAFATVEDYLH
UniProt Q96Q83: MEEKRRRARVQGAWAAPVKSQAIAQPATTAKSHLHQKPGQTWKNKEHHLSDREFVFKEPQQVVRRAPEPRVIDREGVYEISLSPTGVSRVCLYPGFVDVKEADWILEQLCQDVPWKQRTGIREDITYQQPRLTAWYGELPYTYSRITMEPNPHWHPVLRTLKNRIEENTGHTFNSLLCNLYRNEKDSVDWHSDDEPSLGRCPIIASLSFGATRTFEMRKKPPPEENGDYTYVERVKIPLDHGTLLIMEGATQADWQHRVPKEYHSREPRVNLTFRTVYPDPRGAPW
UniProt Q9BS26: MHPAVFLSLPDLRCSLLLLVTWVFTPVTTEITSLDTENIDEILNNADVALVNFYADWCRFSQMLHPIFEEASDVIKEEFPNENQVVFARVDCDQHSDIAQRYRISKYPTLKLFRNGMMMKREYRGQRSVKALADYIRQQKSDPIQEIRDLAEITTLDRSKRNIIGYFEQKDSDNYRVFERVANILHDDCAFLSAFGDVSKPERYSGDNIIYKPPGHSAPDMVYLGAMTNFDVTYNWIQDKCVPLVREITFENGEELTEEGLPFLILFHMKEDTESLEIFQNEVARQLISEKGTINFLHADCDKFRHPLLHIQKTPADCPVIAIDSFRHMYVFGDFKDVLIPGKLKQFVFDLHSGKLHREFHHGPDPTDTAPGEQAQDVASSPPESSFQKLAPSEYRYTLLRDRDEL
UniProt Q9BT73: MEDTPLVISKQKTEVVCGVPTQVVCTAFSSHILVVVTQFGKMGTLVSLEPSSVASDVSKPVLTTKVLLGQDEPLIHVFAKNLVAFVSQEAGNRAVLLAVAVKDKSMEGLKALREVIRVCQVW

Compound in the test: Nc1nc2c(ncn2[C@@H]2O[C@H](COP(=O)(O)OP(=O)(O)OP(=O)(O)O)[C@@H](O)[C@H]2O)c(=O)[nH]1 [guanosine triphosphate]
Nature of the test: NP40-soluble protein abundance relative to vehicle (solubility fold change) (ratio); higher = more soluble protein in presence of GTP. An outline of the steps: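 Jurkat crude lysate prepared with a Dounce homogeniser was treated at eight concentrations spanning 0.1 to 10 mM, 10 min at room temperature then 3 min at 37 °C. Solubilisation with 0.8% NP40 and benzonase and ultracentrifugation preceded TMT labelling of the supernatant for LC-MS/MS. Fold change against the detergent-processed vehicle was determined per replicate from vsn-normalised intensities, across three independent experiments.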

± gives the standard deviation of the averaged measurements. Some of the results follow.

Take UniProt Q96Q11 and related entries: the NP40-soluble protein abundance reads like this: (concentration: 0.1mM) 0.997 ± 0.014; (concentration: 0.5mM) 0.971 ± 0.018; (concentration: 1mM) 0.929 ± 0.015; (concentration: 2mM) 0.903 ± 0.025; (concentration: 4mM) 0.891 ± 0.04; (concentration: 6mM) 0.877 ± 0.037. The NP40-soluble protein abundance (concentration: 8mM) turned out to be 0.875 ± 0.043 and the NP40-soluble protein abundance (concentration: 10mM) worked out at 0.855 ± 0.047.

Regarding UniProt Q9BXW9 and related entries, the NP40-soluble protein abundance came to 1.04 ± 0.036 (concentration: 0.1mM); 1 ± 0.037 (concentration: 0.5mM); 1 ± 0.029 (concentration: 1mM); 1.04 ± 0.05 (concentration: 2mM); 1.04 ± 0.055 (concentration: 4mM); 0.971 ± 0.052 (concentration: 6mM). In addition, the NP40-soluble protein abundance stood at 1.05 ± 0.045 (concentration: 8mM) and 0.993 ± 0.033 (concentration: 10mM).

Take UniProt Q96S52 and related entries: the NP40-soluble protein abundance runs as follows: (concentration: 0.1mM) 1.02 ± 0.053; (concentration: 0.5mM) 1.06 ± 0.078; (concentration: 1mM) 1.04 ± 0.046; (concentration: 2mM) 1.05 ± 0.077; (concentration: 4mM) 1.09 ± 0.094; (concentration: 6mM) 1.11 ± 0.11. Besides, the NP40-soluble protein abundance by setting is: (concentration: 8mM) 1.12 ± 0.086; (concentration: 10mM) 1.15 ± 0.069.

With TIMM17A (UniProt Q99595), the NP40-soluble protein abundance amounted to 0.859 ± 0.014 (concentration: 0.1mM); 0.88364 ± 5.3e-05 (concentration: 0.5mM); 0.8359 ± 0.0039 (concentration: 1mM); 0.85 ± 0.058 (concentration: 2mM); 0.851 ± 0.064 (concentration: 4mM); 0.869 ± 0.029 (concentration: 6mM). For the same target, the NP40-soluble protein abundance (concentration: 8mM) was found to be 0.83 ± 0.087 and the NP40-soluble protein abundance (concentration: 10mM) was found to be 0.882 ± 0.051.

For the target SPEN (UniProt Q96T58), the NP40-soluble protein abundance runs as follows: (concentration: 0.1mM) 1.07 ± 0.044; (concentration: 0.5mM) 1.085 ± 0.005; (concentration: 1mM) 1.12 ± 0.026; (concentration: 2mM) 1.17 ± 0.08; (concentration: 4mM) 1.23 ± 0.1; (concentration: 6mM) 1.22 ± 0.092. For the same target, the NP40-soluble protein abundance worked out at 1.33 ± 0.2 (concentration: 8mM) and 1.3 ± 0.16 (concentration: 10mM).

With UniProt Q9BWE0 and related entries, the NP40-soluble protein abundance (concentration: 0.1mM) was found to be 0.955 ± 0.095; the NP40-soluble protein abundance (concentration: 0.5mM) was determined as 1.02 ± 0.088; the NP40-soluble protein abundance (concentration: 1mM) is 1.01 ± 0.087; the NP40-soluble protein abundance (concentration: 2mM) was found to be 1.06 ± 0.1; the NP40-soluble protein abundance (concentration: 4mM) came to 1.09 ± 0.064; the NP40-soluble protein abundance (concentration: 6mM) worked out at 1.02 ± 0.053. Further, the NP40-soluble protein abundance (concentration: 8mM) was determined as 1.05 ± 0.038 and the NP40-soluble protein abundance (concentration: 10mM) was determined as 1.077 ± 0.01.

For UniProt Q99828 and related entries, the NP40-soluble protein abundance came out at 0.956 ± 0.08 (concentration: 0.1mM); 0.981 ± 0.11 (concentration: 0.5mM); 1.02 ± 0.081 (concentration: 1mM); 1.02 ± 0.084 (concentration: 2mM); 1.02 ± 0.092 (concentration: 4mM); 1 ± 0.12 (concentration: 6mM). In addition, the NP40-soluble protein abundance is 0.996 ± 0.11 (concentration: 8mM) and 0.911 ± 0.12 (concentration: 10mM).

Turning to RANBP9 (UniProt Q96S59), the NP40-soluble protein abundance (concentration: 0.1mM) worked out at 1.04 ± 0.048; the NP40-soluble protein abundance (concentration: 0.5mM) was found to be 1.08 ± 0.11; the NP40-soluble protein abundance (concentration: 1mM) amounted to 1.09 ± 0.11; the NP40-soluble protein abundance (concentration: 2mM) stood at 1.1 ± 0.15; the NP40-soluble protein abundance (concentration: 4mM) stood at 1.13 ± 0.16; the NP40-soluble protein abundance (concentration: 6mM) worked out at 1.11 ± 0.2. Besides, the NP40-soluble protein abundance runs as follows: (concentration: 8mM) 1.1 ± 0.19; (concentration: 10mM) 1.05 ± 0.18.

Turning to ALKBH3 (UniProt Q96Q83), the NP40-soluble protein abundance runs as follows: (concentration: 0.1mM) 1.01 ± 0.092; (concentration: 0.5mM) 0.928 ± 0.056; (concentration: 1mM) 0.943 ± 0.09; (concentration: 2mM) 0.946 ± 0.1; (concentration: 4mM) 0.945 ± 0.055; (concentration: 6mM) 0.904 ± 0.05. For the same target, the NP40-soluble protein abundance (concentration: 8mM) came out at 0.929 ± 0.093 and the NP40-soluble protein abundance (concentration: 10mM) stood at 0.876 ± 0.15.

For UniProt Q9BS26, the NP40-soluble protein abundance stood at 0.969 ± 0.065 (concentration: 0.1mM); 0.949 ± 0.059 (concentration: 0.5mM); 0.921 ± 0.056 (concentration: 1mM); 0.894 ± 0.059 (concentration: 2mM); 0.898 ± 0.062 (concentration: 4mM); 0.888 ± 0.049 (concentration: 6mM). Further, the NP40-soluble protein abundance stood at 0.896 ± 0.066 (concentration: 8mM) and 0.877 ± 0.066 (concentration: 10mM).

On to PSMG3 (UniProt Q9BT73), for which the NP40-soluble protein abundance (concentration: 0.1mM) is 1.03 ± 0.027; the NP40-soluble protein abundance (concentration: 0.5mM) came to 1.09 ± 0.083; the NP40-soluble protein abundance (concentration: 1mM) is 1.09 ± 0.058; the NP40-soluble protein abundance (concentration: 2mM) came out at 1.07 ± 0.042; the NP40-soluble protein abundance (concentration: 4mM) came to 1.08 ± 0.054; the NP40-soluble protein abundance (concentration: 6mM) came to 0.999 ± 0.087. Also, the NP40-soluble protein abundance was 1.14 ± 0.087 (concentration: 8mM) and 1.04 ± 0.042 (concentration: 10mM).
